# Measured values as given in PMC4154663, “Bipartite Recognition of DNA by TCF/Pangolin Is Remarkably Flexible and Contributes to Transcriptional Responsiveness and Tissue Specificity of Wingless Signaling”.
# Construct, isoform or probe ends are uncertain for at least one entry. At least one verdict rests on a figure or table, not on a statement of the authors. Tags and fusion partners may be left off the protein sequences shown.
# Molecular target: T1, TCF/Pangolin HMG + C-clamp fragment (UniProt P91943)
# T1 sequence (looked up, limits assumed): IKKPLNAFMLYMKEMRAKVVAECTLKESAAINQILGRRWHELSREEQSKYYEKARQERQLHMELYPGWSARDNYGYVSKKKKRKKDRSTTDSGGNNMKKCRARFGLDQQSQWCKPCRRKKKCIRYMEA
# Test: EMSA
# Settings: 10 mM Tris-HCl pH 7.5, 50 mM KCl, 1 mM DTT, 0.05% NP40, 3.5% glycerol, 50 ug/ml poly(dIdC); 6 pmol protein, 0-2.4 pmol competitor; recombinant protein; protein details: His (pET52b(+), XmaI/SacI); label: 5' IRD700 on both strands
sequence,measurement,value
TACGATAAGATCAAAGGTGCAGTGCCGCCAGTCGTA / TACGACTGGCGGCACTGCACCTTTGATCTTATCGAC [IR-AK6 labeled probe],binding result,binds
